The target of assay [1] is T1, IL-2Rαβγ on CTLL2 cells (UniProt P01590).
T1 sequence (looked up) 1: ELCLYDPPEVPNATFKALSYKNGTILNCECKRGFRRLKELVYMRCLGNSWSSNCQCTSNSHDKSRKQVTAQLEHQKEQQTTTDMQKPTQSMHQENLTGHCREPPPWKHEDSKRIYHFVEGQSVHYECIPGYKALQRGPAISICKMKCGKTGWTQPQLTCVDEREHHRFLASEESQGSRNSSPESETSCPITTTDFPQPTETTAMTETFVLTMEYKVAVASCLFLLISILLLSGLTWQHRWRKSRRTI
T1 sequence (looked up) 2: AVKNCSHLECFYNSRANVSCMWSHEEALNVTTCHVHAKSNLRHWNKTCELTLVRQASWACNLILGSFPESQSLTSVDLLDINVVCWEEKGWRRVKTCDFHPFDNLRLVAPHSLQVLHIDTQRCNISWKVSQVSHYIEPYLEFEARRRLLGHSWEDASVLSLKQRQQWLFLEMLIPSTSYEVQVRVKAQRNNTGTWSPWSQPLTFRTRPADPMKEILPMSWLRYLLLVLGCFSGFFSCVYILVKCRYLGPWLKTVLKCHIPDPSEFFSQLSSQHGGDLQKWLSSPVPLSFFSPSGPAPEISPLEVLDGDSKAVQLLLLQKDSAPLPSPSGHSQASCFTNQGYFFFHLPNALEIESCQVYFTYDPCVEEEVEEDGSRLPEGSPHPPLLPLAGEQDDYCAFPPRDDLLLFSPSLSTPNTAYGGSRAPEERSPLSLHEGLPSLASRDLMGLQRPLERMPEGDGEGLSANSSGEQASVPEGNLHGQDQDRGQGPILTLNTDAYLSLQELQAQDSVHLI
T1 sequence (looked up) 3: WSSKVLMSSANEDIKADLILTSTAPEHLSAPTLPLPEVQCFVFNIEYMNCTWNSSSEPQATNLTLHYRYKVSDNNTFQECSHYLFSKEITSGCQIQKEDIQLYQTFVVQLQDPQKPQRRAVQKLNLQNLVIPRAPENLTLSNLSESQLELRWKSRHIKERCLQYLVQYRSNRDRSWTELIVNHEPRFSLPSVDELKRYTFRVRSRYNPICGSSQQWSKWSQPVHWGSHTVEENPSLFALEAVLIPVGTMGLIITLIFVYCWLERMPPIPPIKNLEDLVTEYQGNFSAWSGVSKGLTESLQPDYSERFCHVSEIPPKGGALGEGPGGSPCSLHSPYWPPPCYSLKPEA
Description: flow cytometry on CTLL-2 cells, His-tagged protein at 1.0 and 0.1 ug/ml, anti-His-APC; y axis without label.

Chains of the proteins cited; added tags and fusions are not shown. Lines headed by an entry give the natural chain unless they say otherwise; changes in a name come on top.
UniProt P60568: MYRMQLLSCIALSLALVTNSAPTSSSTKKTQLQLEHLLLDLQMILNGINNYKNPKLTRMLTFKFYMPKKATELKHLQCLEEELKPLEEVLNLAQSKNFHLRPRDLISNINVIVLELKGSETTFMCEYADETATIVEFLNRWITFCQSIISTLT

For assay [2], the target named is T1, IL-2Rαβγ on CTLL2 cells. Nature of the assay: flow cytometry on cells, anti-His-APC. On the technique in general: In flow cytometry, cells or beads pass a laser one at a time.

These are yes or no findings as the source states them, for the method shown. Some entries that bind do so weakly or less than the wild type.

As to “ACT5200, IL-2 mutein Y31C (from UniProt P60568 21-153) (ligand)”, the binding entry in assay [1] and in assay [2] was “binds” each time.

Consider “ACT5201, IL-2 mutein Y31C (PEG20K) (from UniProt P60568 21-153) (ligand)”, for which, in assay [2], the binding entry is given as “binds”.

“ACT5211, IL-2 mutein Y31C + L18M + L19S (PEG20K) (from UniProt P60568 21-153) (ligand)”: the binding entry in assay [1] is given as “binds”.

As to “recombinant human IL-2 with C125S substitution (rhIL-2) (from UniProt P60568 21-153) (ligand)”, in assay [1], the binding result was “binds”.

Values taken from patent publication US20240010697A1.
